In the supplement of paper PMC8728848:
The list shows a part of the results.

What was measured:
Assay in all cases: glycan array binding signal (z-score within array); higher = stronger binding
Details in all cases: glycan notation: IUPAC condensed, linker removed
[1] = molecular target: Gal(a1-6)Glc
Procedure, shortened: (§1)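 Columns mapping to the same glycan were averaged after glycan names were converted to IUPAC-condensed notation. The data come from 3228 arrays in the Consortium for Functional Glycomics database, limited to those with an available protein sequence. Binding is reported as a within-array Z-score averaged across arrays of one protein sequence and across linkers.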

[2] = molecular target: Gal(b1-2)Gal
Procedure, shortened: as §1

[3] = molecular target: Gal(b1-3)Gal
Procedure, shortened: as §1

[4] = molecular target: Gal(b1-3)Gal(b1-4)GlcNAc
Procedure, shortened: as §1

[5] = molecular target: Gal(b1-3)GalNAc
Procedure, shortened: as §1

[6] = molecular target: Gal(b1-3)GalNAc(a1-3)[Fuc(a1-2)]Gal(b1-4)Glc
Procedure, shortened: as §1

[7] = molecular target: Gal(b1-3)GalNAc(a1-3)[Fuc(a1-2)]Gal(b1-4)GlcNAc
Procedure, shortened: as §1

[8] = molecular target: Gal(b1-3)GalNAc(b1-3)Gal
Procedure, shortened: as §1

[9] = molecular target: Gal(b1-3)GalNAc(b1-3)Gal(a1-4)Gal(b1-4)Glc
Procedure, shortened: as §1

[10] = molecular target: Gal(b1-3)GalNAc(b1-4)Gal(b1-4)Glc
Procedure, shortened: as §1

[11] = molecular target: Gal(b1-3)GalNAc(b1-4)[Neu5Ac(a2-3)]Gal(b1-4)Glc
Procedure, shortened: as §1

[12] = molecular target: Gal(b1-3)GlcNAc
Procedure, shortened: as §1

[13] = molecular target: Gal(b1-3)GlcNAc(a1-3)Gal(b1-4)GlcNAc
Procedure, shortened: as §1

[14] = molecular target: Gal(b1-3)GlcNAc(a1-6)Gal(b1-4)GlcNAc
Procedure, shortened: as §1

[15] = molecular target: Gal(b1-3)GlcNAc(b1-2)Man
Procedure, shortened: as §1

[16] = molecular target: Gal(b1-3)GlcNAc(b1-2)Man(a1-3)[Gal(b1-3)GlcNAc(b1-2)Man(a1-6)]Man(b1-4)GlcNAc(b1-4)GlcNAc
Procedure, shortened: as §1

[17] = molecular target: Gal(b1-3)GlcNAc(b1-2)Man(a1-3)[Gal(b1-3)GlcNAc(b1-2)Man(a1-6)]Man(b1-4)GlcNAc(b1-4)[Fuc(a1-6)]GlcNAc
Procedure, shortened: as §1

[18] = molecular target: Gal(b1-3)GlcNAc(b1-2)Man(a1-3)[GlcNAc(b1-4)][Gal(b1-3)GlcNAc(b1-2)Man(a1-6)]Man(b1-4)GlcNAc(b1-4)GlcNAc
Procedure, shortened: as §1

[19] = molecular target: Gal(b1-3)GlcNAc(b1-2)[Gal(b1-3)GlcNAc(b1-6)]Man(a1-6)[Gal(b1-3)GlcNAc(b1-2)Man(a1-3)]Man(b1-4)GlcNAc(b1-4)GlcNAc
Procedure, shortened: as §1

[20] = molecular target: Gal(b1-3)GlcNAc(b1-3)Gal(b1-3)GlcNAc
Procedure, shortened: as §1

[21] = molecular target: Gal(b1-3)GlcNAc(b1-3)Gal(b1-4)Glc
Procedure, shortened: as §1

[22] = molecular target: Gal(b1-3)GlcNAc(b1-3)Gal(b1-4)GlcNAc
Procedure, shortened: as §1

[23] = molecular target: Gal(b1-3)GlcNAc(b1-3)Gal(b1-4)GlcNAc(b1-2)Man(a1-3)[Gal(b1-3)GlcNAc(b1-3)Gal(b1-4)GlcNAc(b1-2)Man(a1-6)]Man(b1-4)GlcNAc(b1-4)GlcNAc
Procedure, shortened: as §1

[24] = molecular target: Gal(b1-3)GlcNAc(b1-3)Gal(b1-4)GlcNAc(b1-2)[Gal(b1-3)GlcNAc(b1-3)Gal(b1-4)GlcNAc(b1-6)]Man(a1-6)[Gal(b1-3)GlcNAc(b1-3)Gal(b1-4)GlcNAc(b1-2)Man(a1-3)]Man(b1-4)GlcNAc(b1-4)[Fuc(a1-6)]GlcNAc
Procedure, shortened: as §1

[25] = molecular target: Gal(b1-3)GlcNAc(b1-3)Gal(b1-4)GlcNAc(b1-3)Gal(b1-4)GlcNAc(b1-2)[Gal(b1-3)GlcNAc(b1-3)Gal(b1-4)GlcNAc(b1-3)Gal(b1-4)GlcNAc(b1-6)]Man(a1-6)[Gal(b1-3)GlcNAc(b1-3)Gal(b1-4)GlcNAc(b1-3)Gal(b1-4)GlcNAc(b1-2)Man(a1-3)]Man(b1-4)GlcNAc(b1-4)[Fuc(a1-6)]GlcNAc
Procedure, shortened: as §1

[26] = molecular target: Gal(b1-3)GlcNAc(b1-3)Gal(b1-4)GlcNAc(b1-6)[Gal(b1-3)GlcNAc(b1-3)]Gal(b1-4)Glc
Procedure, shortened: as §1

[27] = molecular target: Gal(b1-3)GlcNAc(b1-3)Gal(b1-4)[Fuc(a1-3)]GlcNAc
Procedure, shortened: as §1

[28] = molecular target: Gal(b1-3)GlcNAc(b1-3)Gal(b1-4)[Fuc(a1-3)]GlcNAc(b1-6)[Gal(b1-3)GlcNAc(b1-3)]Gal(b1-4)Glc
Procedure, shortened: as §1

[29] = molecular target: Gal(b1-3)GlcNAc(b1-3)GalNAc
Procedure, shortened: as §1

[30] = molecular target: Gal(b1-3)GlcNAc(b1-6)Gal(b1-4)GlcNAc
Procedure, shortened: as §1

[31] = molecular target: Gal(b1-3)GlcNAc(b1-6)GalNAc
Procedure, shortened: as §1

[32] = molecular target: Gal(b1-3)GlcNAc(b1-6)[Gal(b1-3)]GalNAc
Procedure, shortened: as §1

[33] = molecular target: Gal(b1-3)GlcNAc6S
Procedure, shortened: as §1

[34] = molecular target: Gal(b1-3)[Fuc(a1-4)]GlcNAc
Procedure, shortened: as §1

[35] = molecular target: Gal(b1-3)[Fuc(a1-4)]GlcNAc(b1-2)Man
Procedure, shortened: as §1

[36] = molecular target: Gal(b1-3)[Fuc(a1-4)]GlcNAc(b1-2)Man(a1-3)[Gal(b1-3)[Fuc(a1-4)]GlcNAc(b1-2)Man(a1-6)]Man(b1-4)GlcNAc(b1-4)[Fuc(a1-6)]GlcNAc
Procedure, shortened: as §1

[37] = molecular target: Gal(b1-3)[Fuc(a1-4)]GlcNAc(b1-3)Gal(b1-3)[Fuc(a1-4)]GlcNAc
Procedure, shortened: as §1

B1: MtEccB1 (Mycobacterium tuberculosis H37Rv), O69734 (protein)
chain: MGLRLTTKVQVSGWRFLLRRLEHAIVRRDTRMFDDPLQFYSRSIALGIVVAVLILAGAALLAYFKPQGKLGGTSLFTDRATNQLYVLLSGQLHPVYNLTSARLVLGNPANPATVKSSELSKLPMGQTVGIPGAPYATPVSAGSTSIWTLCDTVARADSTSPVVQTAVIAMPLEIDASIDPLQSHEAVLVSYQGETWIVTTKGRHAIDLTDRALTSSMGIPVTARPTPISEGMFNALPDMGPWQLPPIPAAGAPNSLGLPDDLVIGSVFQIHTDKGPQYYVVLPDGIAQVNATTAAALRATQAHGLVAPPAMVPSLVVRIAERVYPSPLPDEPLKIVSRPQDPALCWSWQRSAGDQSPQSTVLSGRHLPISPSAMNMGIKQIHGTATVYLDGGKFVALQSPDPRYTESMYYIDPQGVRYGVPNAETAKSLGLSSPQNAPWEIVRLLVDGPVLSKDAALLEHDTLPADPSPRKVPAGASGAP
glycan array binding signal (z-score) [1]: -0.349
glycan array binding signal (z-score) [2]: -1.09
glycan array binding signal (z-score) [3]: 0.485
glycan array binding signal (z-score) [4]: -0.055
glycan array binding signal (z-score) [5]: -0.513
glycan array binding signal (z-score) [6]: 1.1
glycan array binding signal (z-score) [7]: -0.412
glycan array binding signal (z-score) [8]: -0.796
glycan array binding signal (z-score) [9]: -0.784
glycan array binding signal (z-score) [10]: -0.659
glycan array binding signal (z-score) [11]: -0.056
glycan array binding signal (z-score) [12]: -0.425
glycan array binding signal (z-score) [13]: -0.927
glycan array binding signal (z-score) [14]: -0.462
glycan array binding signal (z-score) [15]: 0.257
glycan array binding signal (z-score) [16]: 2.58
glycan array binding signal (z-score) [17]: -0.811
glycan array binding signal (z-score) [18]: -0.871
glycan array binding signal (z-score) [19]: 0.372
glycan array binding signal (z-score) [20]: 0.213
glycan array binding signal (z-score) [21]: 1.07
glycan array binding signal (z-score) [22]: -0.737
glycan array binding signal (z-score) [23]: 1.56
glycan array binding signal (z-score) [24]: 1.6
glycan array binding signal (z-score) [25]: -1.22
glycan array binding signal (z-score) [26]: -0.066
glycan array binding signal (z-score) [27]: -0.15
glycan array binding signal (z-score) [28]: 0.926
glycan array binding signal (z-score) [29]: -0.04
glycan array binding signal (z-score) [30]: 0.062
glycan array binding signal (z-score) [31]: 0.625
glycan array binding signal (z-score) [32]: -1.36
glycan array binding signal (z-score) [33]: -0.552
glycan array binding signal (z-score) [34]: -0.281
glycan array binding signal (z-score) [35]: -0.172
glycan array binding signal (z-score) [36]: -0.202
glycan array binding signal (z-score) [37]: -1
